System: bronchoconstriction induced by sodium arachidonate
Assay: Dynamic compliance and airway resistance in the anaesthetized guinea pig challenged with sodium arachidonate
Type: in vivo
Conditions: dose 3.85 mg/kg intravenously
Experimental: The ability of Cohn subfraction IV4 and haptoglobin to reduce the transient hypertension caused by administration of sodium arachidonate in the guinea pig was also measured. These tests were carried out as follows.
Male albino guinea pigs weighing 400-600 g each (Dunkin Hartley strain) were anesthetized by administration of sodium pentobarbitone, 60 mg/kg intraperitoneally. The trachea was cannulated for artificial ventilation by a Starling pump (5-8 ml at 72 strokes per minute) via a Fleisch 0000 pneumatachograph. The difference in pressure across this device was measured with a Grass differential pressure transducer. […] Transpulmonary pressure (TPP) was measured with another differential pressure transducer via side arms to the thoracic cavity and the tracheal cannula. The signals for low and TPP were applied to the analogue computer so that there was approximately 180° phase difference. The computer derived the dynamic compliance and resistance from the in-going signals. Drugs were administered intravenously via the external jugular vein. A 1 mg/ml solution of sodium arachidonate was prepared as follows. […] These doses were given at 30 minute intervals to produce a large but submaximal bronchoconstriction. After 2 or 3 similar responses to the same dose of sodium arachidonate had been obtained, the test substance in saline (0.1 to 1 ml) was injected intravenously. At various times thereafter, a challenge was given.

[1] = challenge 10 min after treatment
[2] = challenge 30 min after treatment
[3] = challenge 60 min after treatment
[4] = challenge 90 min after treatment
[5] = challenge 120 min after treatment
[6] = challenge 150 min after treatment
[7] = challenge 180 min after treatment

## C[C@@H]1C[C@H]2[C@@H]3CCC4=CC(=O)C=C[C@]4(C)[C@@]3(F)[C@@H](O)C[C@]2(C)[C@@]1(O)C(=O)COP(=O)(O)O [Dexamethasone, dexamethasone sodium phosphate]
[1]
  Mean % Inhibition (± s.e.) of educed dynamic lung compliance: 35.0 ± 7.6%
  Mean % Inhibition (± s.e.) of increased airway resistance: 45.3 ± 12.2%
[2]
  Mean % Inhibition (± s.e.) of educed dynamic lung compliance: 55.0 ± 5.0%
  Mean % Inhibition (± s.e.) of increased airway resistance: 65.0 ± 7.0%
[3]
  Mean % Inhibition (± s.e.) of educed dynamic lung compliance: 57.0%
  Mean % Inhibition (± s.e.) of increased airway resistance: 50.0%
[4]
  Mean % Inhibition (± s.e.) of educed dynamic lung compliance: 54.0%
  Mean % Inhibition (± s.e.) of increased airway resistance: 33.0%
[5]
  Mean % Inhibition (± s.e.) of educed dynamic lung compliance: 43.0%
  Mean % Inhibition (± s.e.) of increased airway resistance: 25.0%
[6]
  Mean % Inhibition (± s.e.) of educed dynamic lung compliance: 34.0%
  Mean % Inhibition (± s.e.) of increased airway resistance: 17.0%
[7]
  Mean % Inhibition (± s.e.) of educed dynamic lung compliance: 37.0%
  Mean % Inhibition (± s.e.) of increased airway resistance: 8.0%

Source: patent publication US4129648A, “Method for reducing endogenous prostaglandin synthesis” (priority 1977, dated 1978)
